Publication PMC11147762

Sequences of proteins named here, by UniProt entry; tags and fusion partners are left off.
UniProt Q9UJV9, whole entry R525H: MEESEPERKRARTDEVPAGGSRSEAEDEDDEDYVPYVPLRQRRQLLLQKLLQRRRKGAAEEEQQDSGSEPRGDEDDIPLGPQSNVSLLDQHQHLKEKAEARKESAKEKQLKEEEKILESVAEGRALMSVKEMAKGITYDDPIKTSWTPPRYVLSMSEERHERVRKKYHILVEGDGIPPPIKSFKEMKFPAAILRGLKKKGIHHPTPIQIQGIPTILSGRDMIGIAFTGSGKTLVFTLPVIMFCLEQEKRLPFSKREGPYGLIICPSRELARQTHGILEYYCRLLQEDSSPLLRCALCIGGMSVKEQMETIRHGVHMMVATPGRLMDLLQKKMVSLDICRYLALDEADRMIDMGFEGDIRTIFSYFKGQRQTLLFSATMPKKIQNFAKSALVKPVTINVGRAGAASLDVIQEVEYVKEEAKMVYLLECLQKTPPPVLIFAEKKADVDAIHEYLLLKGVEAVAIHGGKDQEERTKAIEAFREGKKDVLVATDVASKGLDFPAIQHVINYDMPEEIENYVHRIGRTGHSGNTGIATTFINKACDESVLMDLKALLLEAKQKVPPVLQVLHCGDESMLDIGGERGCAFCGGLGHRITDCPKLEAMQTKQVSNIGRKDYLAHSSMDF

Biological target: DDX41-R525H (Homo sapiens) (UniProt Q9UJV9)
Assay: EMSA
Conditions: 0-1300 nM protein with 10 nM nucleic acid, recombinant protein, label: 5'-Cy5 on strand 1

“GCCAGGGACGAGGTGAACCTGCAGGTGGGCAAAGCAGCTGGCACGACAGGTATGAATCGCGTGGTAGAATTCGGCAGCGTCATGCGACGGC (double strand) [Duplex (homoduplex)]”: binds more weakly.

The exact form of at least one protein or probe is not confirmed. Weaker means in comparison with the reference protein, sequence or condition of that experiment. At least one verdict was read from the data and is not stated in words by the source.
